These are yes or no findings as the source states them, for the method shown. Binding can be weak; no strength is given.
Target: human activated protein C (human)
Assay: ELISA, coated antigen

| Binder | binding |
| --- | --- |
| Hu1573-2 (antibody, V domains shown) VH: EVQLVESGGGLVQPGGSLRLSCAASGFTFSNYYLNWVRQAPGKGLEWVGDIRLKSNNYEKHYAESVKGRFTISRDDSKNSLYLQMNSLKTEDTAVYYCIREGDYFDYWGQGTTVTVSS VL: DIVLTQTPLSLSVTPGQPASISCRASESVDSFGATFMHWYLQKPGQPPQLLIYLASNLESGVPDRFSGSGSRTDFTLKISRVEAEDVGVYYCQQNNEDPYTFGQGTKLEIKR | binds |
| Hu1573-11 (antibody, V domains shown) VH: EVQLVESGGGLVQPGGSLRLSCAASGFTFSNYYLNWVRQAPGKGLEWVGDIRLKSNNYEKHYAESVKGRFTISRDDSKSSLYLQMNSLKTEDTAVYYCIREGDYFDYWGQGTTVTVSS VL: DIVMTQTPLSLSVTPGQPASISCRASESVDSFGATFMHWYLQKPGQPPQLLIYLASNLESGVPDRFSGSGSRTDFTLKISRVEAEDVGVYYCQQNNEDPYTFGQGTKLEIKR | binds |
| Hu1573-6 (antibody, V domains shown) VH: EVQLVESGGGLVQPGGSLRLSCAASGFTFSNYYLNWVRQAPGKGLEWVADIRLKSNNYEKHYAESVKGRFTISRDDSKNSLYLQMNSLKTEDTAVYYCIREGDYFDYWGQGTTVTVSS VL: DIVMTQTPLSLSVTPGQPASISCRASESVDSFGATFMHWYLQKPGQPPQLLIYLASNLESGVPDRFSGSGSGTDFTLKISRVEAEDVGVYYCQQNNEDPYTFGQGTKLEIKR | binds |
| Hu1573-3 (antibody, V domains shown) VH: EVQLVESGGGLVQPGGSLRLSCAASGFTFSNYYLNWVRQAPGKGLEWVGDIRLKSNNYEKHYAESVKGRFTISRDDSKNSVYLQMNSLKTEDTAVYYCIREGDYFDYWGQGTTVTVSS VL: DIVMTQTPLSLSVTPGQPASISCRASESVDSFGATFMHWYLQKPGQPPQLLIYLASNLESGVPDRFSGSGSGTDFTLKISRVEAEDVGVYYCQQNNEDPYTFGQGTKLEIKR | binds |
| Hu1573-10 (antibody, V domains shown) VH: EVQLVESGGGLVQPGGSLRLSCAASGFTFSNYYLNWVRQAPGKGLEWVGDIRLKSNNYEKHYAESVKGRFTISRDDSKSSLYLQMNSLKTEDTAVYYCIREGDYFDYWGQGTTVTVSS VL: DIVLTQTPLSLSVTPGQPASISCRASESVDSFGATFMHWYLQKPGQPPQLLIYLASNLESGVPDRFSGSGSGTDFTLKISRVEAEDVGVYYCQQNNEDPYTFGQGTKLEIKR | binds |
| Hu1573-8 (antibody, V domains shown) VH: EVQLVESGGGLVQPGGSLRLSCAASGFTFSNYYLNWVRQAPGKGLEWVADIRLKSNNYEKHYAESVKGRFTISRDDSKNSLYLQMNSLKTEDTAVYYCIREGDYFDYWGQGTTVTVSS VL: DIVMTQTPLSLSVTPGQPASISCRASESVDSFGATFMHWYLQKPGQPPQLLIYLASNLESGVPDRFSGSGSRTDFTLKISRVEAEDVGVYYCQQNNEDPYTFGQGTKLEIKR | binds |
| Hu1573-7 (antibody, V domains shown) VH: EVQLVESGGGLVQPGGSLRLSCAASGFTFSNYYLNWVRQAPGKGLEWVADIRLKSNNYEKHYAESVKGRFTISRDDSKNSLYLQMNSLKTEDTAVYYCIREGDYFDYWGQGTTVTVSS VL: DIVLTQTPLSLSVTPGQPASISCRASESVDSFGATFMHWYLQKPGQPPQLLIYLASNLESGVPDRFSGSGSGTDFTLKISRVEAEDVGVYYCQQNNEDPYTFGQGTKLEIKR | binds |
| Hu1573-4 (antibody, V domains shown) VH: EVQLVESGGGLVQPGGSLRLSCAASGFTFSNYYLNWVRQAPGKGLEWVGDIRLKSNNYEKHYAESVKGRFTISRDDSKNSVYLQMNSLKTEDTAVYYCIREGDYFDYWGQGTTVTVSS VL: DIVLTQTPLSLSVTPGQPASISCRASESVDSFGATFMHWYLQKPGQPPQLLIYLASNLESGVPDRFSGSGSGTDFTLKISRVEAEDVGVYYCQQNNEDPYTFGQGTKLEIKR | binds |
| Hu1573-5 (antibody, V domains shown) VH: EVQLVESGGGLVQPGGSLRLSCAASGFTFSNYYLNWVRQAPGKGLEWVGDIRLKSNNYEKHYAESVKGRFTISRDDSKNSVYLQMNSLKTEDTAVYYCIREGDYFDYWGQGTTVTVSS VL: DIVMTQTPLSLSVTPGQPASISCRASESVDSFGATFMHWYLQKPGQPPQLLIYLASNLESGVPDRFSGSGSRTDFTLKISRVEAEDVGVYYCQQNNEDPYTFGQGTKLEIKR | binds |
| Hu1573-9 (antibody, V domains shown) VH: EVQLVESGGGLVQPGGSLRLSCAASGFTFSNYYLNWVRQAPGKGLEWVGDIRLKSNNYEKHYAESVKGRFTISRDDSKSSLYLQMNSLKTEDTAVYYCIREGDYFDYWGQGTTVTVSS VL: DIVMTQTPLSLSVTPGQPASISCRASESVDSFGATFMHWYLQKPGQPPQLLIYLASNLESGVPDRFSGSGSGTDFTLKISRVEAEDVGVYYCQQNNEDPYTFGQGTKLEIKR | binds |

Other lines, results leading:

| binding | Binder |
| --- | --- |
| binds | Hu1573-13 (antibody, V domains shown) VH: EVQLVESGGGLVQPGGSLRLSCAASGFTFSNYYLNWVRQAPGKGLEWVADIRLKSNNYEKHYAESVKGRFTISRDDSKNSVYLQMNSLKTEDTAVYYCIREGDYFDYWGQGTTVTVSS VL: DIVLTQTPLSLSVTPGQPASISCRASESVDSFGATFMHWYLQKPGQPPQLLIYLASNLESGVPDRFSGSGSGTDFTLKISRVEAEDVGVYYCQQNNEDPYTFGQGTKLEIKR |
| binds | Hu1573-17 (antibody, V domains shown) VH: EVQLVESGGGLVQPGGSLRLSCAASGFTFSNYYLNWVRQAPGKGLEWVADIRLKSNNYEKHYAESVKGRFTISRDDSKSSVYLQMNSLKTEDTAVYYCIREGDYFDYWGQGTTVTVSS VL: DIVMTQTPLSLSVTPGQPASISCRASESVDSFGATFMHWYLQKPGQPPQLLIYLASNLESGVPDRFSGSGSRTDFTLKISRVEAEDVGVYYCQQNNEDPYTFGQGTKLEIKR |
| binds | Hu1573-15 (antibody, V domains shown) VH: EVQLVESGGGLVQPGGSLRLSCAASGFTFSNYYLNWVRQAPGKGLEWVADIRLKSNNYEKHYAESVKGRFTISRDDSKSSVYLQMNSLKTEDTAVYYCIREGDYFDYWGQGTTVTVSS VL: DIVMTQTPLSLSVTPGQPASISCRASESVDSFGATFMHWYLQKPGQPPQLLIYLASNLESGVPDRFSGSGSGTDFTLKISRVEAEDVGVYYCQQNNEDPYTFGQGTKLEIKR |
| binds | Hu1573-16 (antibody, V domains shown) VH: EVQLVESGGGLVQPGGSLRLSCAASGFTFSNYYLNWVRQAPGKGLEWVADIRLKSNNYEKHYAESVKGRFTISRDDSKSSVYLQMNSLKTEDTAVYYCIREGDYFDYWGQGTTVTVSS VL: DIVLTQTPLSLSVTPGQPASISCRASESVDSFGATFMHWYLQKPGQPPQLLIYLASNLESGVPDRFSGSGSGTDFTLKISRVEAEDVGVYYCQQNNEDPYTFGQGTKLEIKR |
| binds | Hu1573-12 (antibody, V domains shown) VH: EVQLVESGGGLVQPGGSLRLSCAASGFTFSNYYLNWVRQAPGKGLEWVADIRLKSNNYEKHYAESVKGRFTISRDDSKNSVYLQMNSLKTEDTAVYYCIREGDYFDYWGQGTTVTVSS VL: DIVMTQTPLSLSVTPGQPASISCRASESVDSFGATFMHWYLQKPGQPPQLLIYLASNLESGVPDRFSGSGSGTDFTLKISRVEAEDVGVYYCQQNNEDPYTFGQGTKLEIKR |
| binds | Hu1573-14 (antibody, V domains shown) VH: EVQLVESGGGLVQPGGSLRLSCAASGFTFSNYYLNWVRQAPGKGLEWVADIRLKSNNYEKHYAESVKGRFTISRDDSKNSVYLQMNSLKTEDTAVYYCIREGDYFDYWGQGTTVTVSS VL: DIVMTQTPLSLSVTPGQPASISCRASESVDSFGATFMHWYLQKPGQPPQLLIYLASNLESGVPDRFSGSGSRTDFTLKISRVEAEDVGVYYCQQNNEDPYTFGQGTKLEIKR |
